In paper PMC10891067 (Nature Communications, 2024):
HELM strings list residues between dots; [ac] is acetyl, [am] amide, other brackets name non-standard units.

Assay: general procedure: Fmoc solid-phase peptide synthesis; Fmoc-Rink Amide-MBHA Resin, loading 0.355 mmol/g; HATU/HOBt (1:1, 4 equiv.)
Settings: whole synthesis, total yield

Substance	isolated yield
Fmoc N IHVT IP-E-DL ADW I-K-K NH2	6.8 % total yield
PEPTIDE1{[FITC].[Acp].E.A.E.A.E.A.E.A.E.A.E.A.E.A.E.A.E.A.E.A.E.A.E.A.E.A.E.A.E.A.[am]}$$$$V2.0	7.2% total yield
PEPTIDE1{[Fmoc].[Acp].D.G.R.G.S.L.E.G.R.G.H.K.D.G.[am]}$$$$V2.0	total yield 7.9%
PEPTIDE1{[Fmoc].[Acp].E.A.E.A.E.A.E.A.E.A.E.A.E.A.E.A.E.A.E.A.E.A.E.A.E.A.E.A.E.A.[am]}$$$$V2.0	8.9% total yield
PEPTIDE1{[Fmoc].[Acp].S.G.Q.Y.A.S.Y.H.C.W.C.W.R.D.P.G.R.S.G.G.S.K.[am]}$$$$V2.0	total yield 7.8%
PEPTIDE1{[Nap].F.F.[Acp].E.A.E.A.E.A.E.A.E.A.E.A.E.A.E.A.E.A.E.A.E.A.E.A.E.A.E.A.E.A.[am]}$$$$V2.0	total yield 7.1%
